{"source": "paper PMC4344508", "key": {"GB1-Alyref-6His": {"tested_on": "GB1-Alyref-6His", "assay": "UV crosslinking", "details": "very weak binding; UV crosslinking with 100, 300 or 500 mM KCl (Fig. 2A) or 100 mM NaCl (Fig. 2B); pH and temperature not given (cited earlier paper); recombinant protein; protein details: N-terminal GB1, C-terminal 6xHis; label: 32P; single-stranded DNA"}, "[1]": {"molecular_target": "T1, Luzp4-6His (Homo sapiens) (UniProt Q9P127)", "T1 sequence (looked up)": "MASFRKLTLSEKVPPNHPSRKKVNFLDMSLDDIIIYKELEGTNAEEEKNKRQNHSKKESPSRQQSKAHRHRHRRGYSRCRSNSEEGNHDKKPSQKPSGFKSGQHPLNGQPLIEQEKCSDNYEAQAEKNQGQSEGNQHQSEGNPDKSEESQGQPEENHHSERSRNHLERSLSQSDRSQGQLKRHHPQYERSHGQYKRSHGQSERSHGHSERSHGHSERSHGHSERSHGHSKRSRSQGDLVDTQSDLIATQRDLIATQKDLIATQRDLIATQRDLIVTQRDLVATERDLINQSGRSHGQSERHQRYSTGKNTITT", "assay": "UV crosslinking", "details": "higher KCl (300-500 mM); UV crosslinking with 100, 300 or 500 mM KCl (Fig. 2A) or 100 mM NaCl (Fig. 2B); pH and temperature not given (cited earlier paper); recombinant protein; residues 1-313; protein details: C-terminal 6xHis (pET24b); label: 32P; single-stranded DNA"}}, "note": "For at least one entry, the source does not settle the construct or the ends of the probe. Weaker means in comparison with the reference protein, sequence or condition of that experiment. For some assays here: Tags and fusion partners may be left off the protein sequences shown.", "data": [{"sequence": "CTCTAGATCAACCACTTTGT [ssDNA oligonucleotide]", "values": [{"measurement": "binding result", "setting": "GB1-Alyref-6His", "result": "binds more weakly"}, {"measurement": "binding result", "setting": "[1]", "result": "binds more weakly"}]}]}
